Reference: article doi:10.1101/313791 (bioRxiv, 2018)
Results are given in words; binding and its absence hold for the method and conditions named. Sequences can lack the tags named with a protein.

T1: HDA19 (histone deacetylase 19), full-length, BD fusion (Arabidopsis thaliana) (UniProt O22446)
T1 sequence: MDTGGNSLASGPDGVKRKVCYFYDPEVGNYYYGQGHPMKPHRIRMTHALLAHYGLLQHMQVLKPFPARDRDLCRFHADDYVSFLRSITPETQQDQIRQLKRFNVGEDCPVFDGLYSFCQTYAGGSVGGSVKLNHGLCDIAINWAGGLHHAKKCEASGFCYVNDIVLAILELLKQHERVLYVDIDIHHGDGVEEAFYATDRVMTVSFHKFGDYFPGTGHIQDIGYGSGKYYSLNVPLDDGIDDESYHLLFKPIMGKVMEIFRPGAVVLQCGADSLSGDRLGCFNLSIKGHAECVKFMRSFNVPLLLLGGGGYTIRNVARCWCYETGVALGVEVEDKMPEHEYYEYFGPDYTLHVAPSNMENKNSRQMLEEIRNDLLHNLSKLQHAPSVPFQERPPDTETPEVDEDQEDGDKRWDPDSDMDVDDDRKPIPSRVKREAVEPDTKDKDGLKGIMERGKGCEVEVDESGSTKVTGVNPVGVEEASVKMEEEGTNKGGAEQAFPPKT

B1: SHORT-ROOT (SHR), AD fusion (protein, UniProt Q9SZF7 1-531)
chain: MDTLFRLVSLQQQQQSDSIITNQSSLSRTSTTTTGSPQTAYHYNFPQNDVVEECFNFFMDEEDLSSSSSHHNHHNHNNPNTYYSPFTTPTQYHPATSSTPSSTAAAAALASPYSSSGHHNDPSAFSIPQTPPSFDFSANAKWADSVLLEAARAFSDKDTARAQQILWTLNELSSPYGDTEQKLASYFLQALFNRMTGSGERCYRTMVTAAATEKTCSFESTRKTVLKFQEVSPWATFGHVAANGAILEAVDGEAKIHIVDISSTFCTQWPTLLEALATRSDDTPHLRLTTVVVANKFVNDQTASHRMMKEIGNRMEKFARLMGVPFKFNIIHHVGDLSEFDLNELDVKPDEVLAINCVGAMHGIASRGSPRDAVISSFRRLRPRIVTVVEEEADLVGEEEGGFDDEFLRGFGECLRWFRVCFESWEESFPRTSNERLMLERAAGRAIVDLVACEPSDSTERRETARKWSRRMRNSGFGAVGYSDEVADDVRALLRRYKEGVWSMVQCPDAAGIFLCWRDQPVVWASAWRPT
B2: JACKDAW (JKD), AD fusion (protein, UniProt Q700D2 1-503)
chain: MQMIPGDPFSISSSMGGFVHQETHLHHLQQQIPDLNPNSNPNPNAKPNSSSAKKKRNQPGTPDPDADVIALSPTTLMATNRFVCEICNKGFQRDQNLQLHRRGHNLPWKLKQRSKQEVIKKKVYICPIKTCVHHDASRALGDLTGIKKHYSRKHGEKKWKCEKCSKKYAVQSDWKAHAKTCGTREYKCDCGTLFSRKDSFITHRAFCDALTEEGARMSSLSNNNPVISTTNLNFGNESNVMNNPNLPHGFVHRGVHHPDINAAISQFGLGFGHDLSAMHAQGLSEMVQMASTGNHHLFPSSSSSLPDFSGHHQFQIPMTSTNPSLTLSSSSTSQQTSASLQHQTLKDSSFSPLFSSSSENKQNKPLSPMSATALLQKAAQMGSTRSNSSTAPSFFAGPTMTSSSATASPPPRSSSPMMIQQQLNNFNTNVLRENHNRAPPPLSGVSTSSVDNNPFQSNRSGLNPAQQMGLTRDFLGVSNEHHPHQTGRRPFLPQELARFAPLG

Molecular target: T1, HDA19 (histone deacetylase 19), full-length, BD fusion (Arabidopsis thaliana)
Assay: yeast three-hybrid

Binder | binding
B1 | no binding
B2 | no binding
